# Data taken from patent publication US20210214440A1.
# Results are given in words; binding and its absence hold for the method and conditions named.
# Biological target: Human CD8αα fused to human Fc (human)
# Assay: SPR Biacore 8K, mAb captured, single cycle kinetics
row,Binder,binding
1,"CD8B246 (antibody, human IgG1, kappa, V domains shown) VH: QVQLKESGPGILKPSQTLSLTCSFSGFSLSTSGMNVGWIRQPSGKGLEWLAHIWWDDDKYYNPSLKSQLTISKDTSRNQVFLKITSVDTADTATYYCARRGNYGNYEFAYWGQGTTLTVSS VL: DIQMTQTTSSLSASLGDRVTISCRASQDIRNYLNWYQQKPDGTVKLLIYHTSRLHSGVPSRFSGSGSGTDYSLTISNLEQEDIATYFCQQGNTLPWTFGAGTKLELKR",no binding (tested: 100 nM)
2,"CD8B303 (antibody, human IgG1, kappa, V domains shown) VH: QVQLKESGPGLVAPSQSLSITCTVSGFSLSIYSIHWVRQPPGKGLEWLGMIWGGGSTDYNSTLNSRLSIIKDNSKSQVFLKMNSLQTDDTAMYYCARNPHHYGGSTGAMDYWGQGTTVTVSS VL: DVQMIQSPSSLSASLGGTVTITCKASQDIKKYMAWYQHKPGKGPRLLIHYTSSLQPGIPSRFSGSGSGRDYYFSISNLEPEDIATYFCLQYDNLFTFGSGTKLELKR",no binding (tested: 100 nM)
3,"CD8B304 (antibody, human IgG1, kappa, V domains shown) VH: QVTLKESGPGILKPSQTLSLTCSFSGFSLSTSGMNVGWIRQPSGKGLEWLAHIWWDDDKYYNPSLKSQLTISKDTSRNQVFLKITSVDTADTATYYCARRGNYGNYEFAYWGQGTTVTVSS VL: DIQMTQTTSSLSASLGDRVTISCRASQDIRNYLNWYQQKPDGTVKLLIYHTSRLHSGVPSRFSGSGSGTDYSLTISNLDQEDIATYFCQQGNTLPWTFGAGTKLELKR",no binding (tested: 100 nM)
4,"CD8B312 (antibody, human IgG1, kappa, V domains shown) VH: QVQLQQPGADLVKPGASVKLSCKASGYTFTSFWMHWVKQRPGQGLEWIGNVDPSDSQTHYNQKFKDKATLTVDKSSNTAYMQLSSLTSEDSAVYYCARSTYYRYDGPFTYWGQGTTVTVSS VL: DIVLTQSPATLSVTPGDSVSLSCRASQSINNNLHWYQQKSHESPRLLIKYTSQSISGIPSRFSGSGSGPDFTLSINSVETEDFGMYFCQQSNSWPLTFGGGTKLEIKR",no binding (tested: 100 nM)
5,"CD8B350 (antibody, human IgG1, kappa, V domains shown) VH: EVQLQQSGAELAKPGTSVKMSCKASGYTFAAYWINWLKQRPGQGLEWIGSINPSNGYTEYSQKFKDKAILTADKSSSTAYMQLSSLTSEDSAVYYCSRSGLYYTNHLAWCPYWGQGTTVTVSS VL: DIVMTQSPASLSASVGETVTITCRASGNIHNYLAWYQQKQGKSPQVLVYNAETLADSVPSRFSGSGSGTQFSLKINSLQPEDFGNYYCQHFWNSPLTFGGGTKLEIKR",no binding (tested: 100 nM)
6,"CD8B356 (antibody, human IgG1, kappa, V domains shown) VH: DVQLQESGPGLVKPSQSLSLTCSVTGYSITSGYYWNWIRQFPGNKLEWMGYISYDGSNNYNPSLKNRISITRDTSKNQFFLKLNSVTTEDTATYYCVRNHGDAMDYWGQGTSVTVSS VL: DIVLTQSQKFMSTTVGDRVSITCKASQNVGTAVAWYQQKPGQSPKLLIYSASYRYTGVPDRFTGSGSGTHFTLTISNMQSEDLADYFCQQYSSYLTFGSGTKLEIKR",no binding (tested: 100 nM)
7,"CD8B182 (antibody, human IgG1, kappa, V domains shown) VH: EVQLQQSGAALAKPGTSVKMSCKASGYTFTSYWMNWVRQRPGQGLEWIGAVNPTNYYTEYIQKFKDKAILTADKSSSTAYMHLSGLTSEDSAVYYCARSGLYNTNHLAWFAYWGQGTTVTVSS VL: DIKMTQSPASLSASVGETVTITCRASENIHNYLAWYQQIQGKSPQLLVYNAKTLANGVPSRFSGSASGTQFSLTINSLQPEDFGSYYCQHFWTTPLTFGAGTKLELKR",no binding (tested: 100 nM)
8,"CD8B268 (antibody, human IgG1, kappa, V domains shown) VH: QVQLQQSGAELVKPGASVKLSCKASGYTFTVYTIHWVKQRSGQGLEWIGWFYPGSGNIKYNEKFKDKATLTADKSSHTVYMELSRLTSEDSAVYFCARHEDNHYYDGNSWFAYWGQGTLVTVSA VL: DIQMTQSPASLSASVGQTVTITCRASGNIHNYLAWFQQKQGKSPQLLVYNAKTLADGVPSRFSGSGSGTQYSLKINSLQTEDFGNYYCQHFWNTPYTFGGGTKLEIKR",no binding (tested: 100 nM)
9,"CD8B251 (antibody, human IgG1, kappa, V domains shown) VH: QVQLKGSGPGLVQPSQSLSITCTVSGFSLTTYAVHWVRQSPGKGLEWLGVIWSGGSTDYNAAFISRLSISKDNSKSQVFFKMNSLQADDTAIYYCARHSYYHYNAMDNWGQGTSVTVSS VL: DIKMTQSQKFMSTTVGDRVSITCKASQNVGTAVAWYQQKPGQSPKLLIYSASNRYTGVPDRFTGSGSGTDFTLTISNMQSEDLADYFCQQYSSYPFTFGSGTKLEIKR",no binding (tested: 100 nM)
10,"CD8B269 (antibody, human IgG1, kappa, V domains shown) VH: DVQLQESGPGLVKPSQSLSLTCSVTGYSITSGYYWNWIRQFPGNKLEWMGYISYDGSNNYNPSLKNRISITRDTSKNQFFLKLNSVTTEDTATYYCVRNHGDAMDHWGQGTTLTVSS VL: DIVMTQSQKFMSTSVGDRVRVTCKASQNVGTDVAWYQQKPGQSPKALIYSASYRYSGVPDRFTGSGSGTDFTLTISDVQSEDLAEYFCQQYKSYPLTFGAGTKLELKR",no binding (tested: 100 nM)
11,"CD8B310 (antibody, human IgG1, kappa, V domains shown) VH: QVQLKESGPGLVAPSQSLSITCTVSGFSLTNYAVHWVRQSPGKGLEWLGVIWTDGSTDYNAGFISRLSISKDNSKSQVFFKMNSLQADDTAIYYCARNNGYFPAFFAYWGQGTTVTVSS VL: DVLMTQTPLSLPVSLGDQASISCRSSQTIVHSNGNTYLEWYLQKPGQSPKLLMYKVSNRFSGVPDRFGGSGSGTDFTLKISRVEAEDLGVYYCFQGSHAPFTFGSGTKLEIKR",no binding (tested: 100 nM)
12,"CD8B319 (antibody, human IgG1, kappa, V domains shown) VH: QVQLKESGPELKKPGETVKISCKASGYSFTAYYMHWVKQSPEKSLEWIGEINPSAGGTTYNQKFKAKATLTVDKSSSTAFIQLKSLTSEDSAVYYCARWTNPFDYWGQGTTLTVSS VL: DIVMTQSQKFMSTTVGDRVSITCKASQNVGTAVAWYQQKPGQSPKLLIYSASYRYTGVPDRFTGSGSGTHFTLTISNIQSEDLADYFCQQYNNYLTFGSGTKLEIKR",no binding (tested: 100 nM)
13,"CD8B186 (antibody, human IgG1, kappa, V domains shown) VH: QVQLQQSGAELAKPGASVKMSCKASGYIFTSYWMHWVKQRPGQGLEWIGNINPSSGYAVYNQKFKDKATLTADQSSSTAYIQLNSLTSEDSAVYYCARRVFYGDSWFAYWGQGTSVTVSS VL: DVQMIQSPASLSASVGETVTITCRASGNIHNYLAWYQQKQGKSPQLLVYNAKTLADGVPSRFSGSGSGTQYSLKINSLQPEDFGSYYCQHFWSTTWTFGGGTKLEIKR",no binding (tested: 100 nM)
14,"CD8B271 (antibody, human IgG1, kappa, V domains shown) VH: DVQLQESGPGLVAPSQSLSITCTVSGFSLSIYSIHWVRQPPGKGLEWLGMIWGGGDTDYNSALKSRLSISKDNSESQVFLKMNSLQTDDTAMYYCARNPHYYGGTYEYFDVWGTGTTVTVSS VL: DIQMTQTTSSLSASLGDRVTISCSASQGISNYLNWYQQKPDGTVKLLIYDTSILYSGVPSRFSGSGSGTDYSLTISNLEPEDVATYYCQQYSNLPYTFGSGTKLEIKR",no binding (tested: 100 nM)
15,"CD8B192 (antibody, human IgG1, kappa, V domains shown) VH: QVQLQQSGPVLVKPGASVKMSCKASGYTFTDYYMNWVMQSHGKSLEWIGVINPYNGGTTYNQRFTGKATLTVDKSSSTAYMELNSLTSEDSAVYYCARNYGAMDSWGQGTSVTVSS VL: DIQMTQSPASLSASVGETVTITCRASGNIHNYLAWYQQKQGKSPQLLVSNAKTLADGVPSRFGGSGSGTQYSLKINSLQPEDFGSYYCQHFWITPPTFGAGTRLEIKR",no binding (tested: 100 nM)
16,"CD8B245 (antibody, human IgG1, kappa, V domains shown) VH: EFQLQQSGGGLVQPGGSLSLSCAAPGFTFTDYYMSWVRQSPGKALEWLALSRNKGNGYTTEYSASVKGRFTISRDNSQSILYLQMNVLRAEDSATYYCARTVTGTLFYYALDYWGQGTTVTVSS VL: DIQMTQSPASLSASVGETVTITCRASENIYSYLAWYQQKQGKSPQFLVYNAKTLAAGVPSRFSGSGSGTQFSLKINRLQPEDFGTYYCQHHYGTPLTFGDGTRLEIKR",no binding (tested: 100 nM)
17,"CD8B248 (antibody, human IgG1, kappa, V domains shown) VH: EVQLQQSGAELARPGASVKMSCKASGYTFTTYTMHWVKQRPGQGLEWIGYINPSSGYTKYNQKFTDKATLTADKSSSTAYMQLSSLTSEDSAVYYCARLWAYWGQGTLVTVSA VL: DVVMTQTPLSLPVSLGDQASISCRSSQSLVHSSGNTYLHWYLQKPGQSPKLLIYKGSNRFSGVSDRFSGSGSGTDFTLKISRVEAEDLGVYFCSQSTHVPFTFGSGTKLEMKR",no binding (tested: 100 nM)
18,"CD8B250 (antibody, human IgG1, kappa, V domains shown) VH: QVQLKESGPGLVAPSQSLSITCTVSGFSLSNYVVHWVRQSPGKGLEWLGVIWTDGSTDYNAAFISRLSISKDNSKSQVFFKMNSLQADDTAIYYCARNNGYFPAFFAYWGQGTLVTVSA VL: DIVMTQSQKFMSTSVGDRVSVTCKASQNVDTDITWYQQKPGQSPKALIYSASYRYSGVPDRFTGSGSGTDFTLTITNVQSEDLAEYFCQQYNSYPLTFGSGTKLEMKR",no binding (tested: 100 nM)
19,"CD8B254 (antibody, human IgG1, kappa, V domains shown) VH: EVQLQQSGAELVKPGASVKMSCKTSGYTFSSYWITWVKQRPGQGLEWVGDIYPGSGSTNYNEKFKSKAALTVDTSSSTAFMQLNSLTSEDSAVYYCARESITTRITPFDHWGQGTTLTVSS VL: DVVMTQTPLSLPVSLGDQASISCRSSQSLVHSSGNTYLHWYLQKPGQSPKLLIYKGSNRFSGVSDRFSGSGSGTDFTLKISRVEAEDLGVYFCSQSTHVPFTFGSGTKLEIKR",no binding (tested: 100 nM)
20,"CD8B273 (antibody, human IgG1, kappa, V domains shown) VH: QVQLQQSGAELVKPGASVKLSCKASGYTFTEYTIHWVKQRSGQGLEWIGWFYPGTGSIKYNEKFKDKATLTADKSSHTVYMELSKLTSEDSAVYFCARHEDNHYYDGNSWFAYWGQGTLVTVSA VL: DIQMTQSPASLSASVGETVTITCRASGNIHNYLAWFQQKQGKSPQLLVYNAKTLADGVPSRFSGSGSGTQYSLKINSLQAEDFGSYYCQHFWSTPYTFGSGTKLEIKR",no binding (tested: 100 nM)
21,"CD8B311 (antibody, human IgG1, kappa, V domains shown) VH: QVQLKESGPELVKPGASVKLSCKASGYTFTSYWMHWVKQRPGQGLEWIGMIHPNSGSTNYNEKFKSKATLTVDKSSSTAYMQLSSLTSEDSAVYYCARCGYDGAWFAYWGQGTSVTVSS VL: DIQMTQTTSSLSASLGDRVTISCSASQGISNCLNWYQQKPDGTVKLLIHYTSSLHSGVPSRFSGGGSGTHYSLTISNLEPEDIATYYCQQYSKVPYTFGSGTKLEIKR",no binding (tested: 100 nM)
